Our source for the normalized growth values is the supplement of paper PMC6331611.

± gives the standard deviation of the averaged measurements. In all, about 1,600 compounds were measured (“normalized growth (OD600, IQM-normalized) in LPM”: median about 1, lowest 2% from about 0.014 on). The list shows a part of the results.

The test concerns Salmonella enterica serovar Typhimurium SL1344. The test is described as follows: normalized growth (OD600, IQM-normalized) in LPM (fraction of plate interquartile mean); higher = more bacterial growth (less inhibition). Particulars: LPM pH 5.8; 10 µM; 16 h.
On to `O=S(=O)(O)CCS`, for which the normalized growth is 0.949 ± 0.029.
On to `CCn1cc(C(=O)O)c(=O)c2cnc(N3CCCC3)nc21`, for which the normalized growth was determined as 1.05 ± 0.052.
To `CCCCCCCCCCCCC[N+](C)(C)Cc1ccccc1` belongs 1.01 ± 0.03; to `CC(=O)[C@H]1CC[C@H]2[C@@H]3C[C@H](C)C4=CC(=O)CC[C@]4(C)[C@H]3[C@@H](O)C[C@]12C`, 1.91 ± 0.14.
The compound `CCOC(=O)OC(C)OC1=C(C(=O)Nc2ccccn2)N(C)S(=O)(=O)c2ccccc21` (stereo unspecified) gave a normalized growth of 1.04 ± 0.05.
With `O=C(O)c1cc(-c2ccc(F)cc2F)ccc1O`, the normalized growth came out at 0.966 ± 0.045.
As for `CCCCNC(=O)NS(=O)(=O)c1ccc(C)cc1`, the figure is 1.12 ± 0.058; as for `C[C@]12C=CC(=O)C=C1CC[C@@H]1[C@@H]2[C@@H](O)C[C@@]2(C)[C@H]1CC[C@]2(O)C(=O)COC(=O)CCC(=O)O`, 0.977 ± 0.058.
`COC(=O)[C@@H]1[C@H]2C[C@H]3c4[nH]c5ccccc5c4CCN3C[C@@H]2CC[C@@H]1O` yielded a normalized growth of 0.956 ± 0.048.
On to `CC1(C)NC(=O)N(c2ccc([N+](=O)[O-])c(C(F)(F)F)c2)C1=O`, for which the normalized growth amounted to 0.979 ± 0.02.
In turn, `CCCCCCc1ccc(O)cc1O` returned a normalized growth of 1.02 ± 0.053.
As for `CC(=O)N[C@@H]([C@@H](O)[C@H](O)[C@H](O)CO)[C@@H](O)CC(=O)C(=O)O`, the figure is 1 ± 0.065; as for `CCC1=C(C)CN(C(=O)NCCc2ccc(S(=O)(=O)NC(=O)N[C@H]3CC[C@H](C)CC3)cc2)C1=O`, 0.926 ± 0.053.
For the compound `CCCCOc1cc(C(=O)NCCN(CC)CC)c2ccccc2n1`, the normalized growth came out at 1.09 ± 0.055.
Compound `CC[C@H]1OC(=O)[C@H](C)C(=O)[C@H](C)[C@@H](O[C@@H]2O[C@H](C)C[C@H](N(C)C)[C@H]2O)[C@](C)(OC)C[C@@H](C)C(=O)[C@H](C)[C@H]2N(CCCCn3cnc(-c4cccnc4)c3)C(=O)O[C@]12C` registered a normalized growth of 0.668 ± 0.046.
As for `N#C[C@@H]1C[C@@H]2C[C@@H]2N1C(=O)[C@@H](N)C12CC3CC(CC(O)(C3)C1)C2`, the figure is 0.919 ± 0.091; as for `CCS(=O)(=O)CCn1c([N+](=O)[O-])cnc1C`, 0.994 ± 0.039.
As for `O=C1CCc2cc(OCCCCc3nnnn3C3CCCCC3)ccc2N1`, the figure is 1.06 ± 0.023; as for `N=C(N)NC(=O)c1nc(Cl)c(N)nc1N`, 0.9797 ± 0.0063; as for `COc1ccc(Cc2cnc(N)nc2N)cc1OC`, 0.546 ± 0.071.
For `CCCCC1=NC2(CCCC2)C(=O)N1Cc1ccc(-c2ccccc2-c2nnn[nH]2)cc1`, the normalized growth was 0.907 ± 0.035.
To `CC[C@H]1OC(=O)[C@H](C)[C@@H](O[C@H]2C[C@@](C)(OC)[C@@H](O)[C@H](C)O2)[C@H](C)[C@@H](O[C@@H]2O[C@H](C)C[C@H](N(C)C)[C@H]2O)[C@](C)(OC)C[C@@H](C)C(=O)[C@H](C)[C@@H](O)[C@]1(C)O` belongs 0.648 ± 0.059; to `CCCCOC(=O)c1ccc(N)cc1`, 1.08 ± 0.031; to `O=C(Nc1ccc(C(=O)O)c(O)c1)c1ccccc1`, 1.12 ± 0.053.
To `CC(C)COCC(CN(Cc1ccccc1)c1ccccc1)N1CCCC1` (stereo unspecified) belongs 1.04 ± 0.025.
Compound `C=NC(C(=O)NC1C(=O)N2C1SC(C)(C)C2C(=O)O)c1ccccc1` (stereo unspecified) returned a normalized growth of 0.913 ± 0.058.
To `CCOC(=O)[C@H](CCc1ccccc1)N[C@@H](C)C(=O)N1[C@H](C(=O)O)C[C@@H]2CCC[C@@H]21` belongs 1.01 ± 0.038; to `NC(=O)c1ncn([C@@H]2O[C@H](CO)[C@@H](O)[C@H]2O)n1`, 1.03 ± 0.024; to `CNS(=O)(=O)Cc1ccc2[nH]cc(CCN(C)C)c2c1`, 1.06 ± 0.032.
Regarding `O=C(CCCl)NCc1ccccc1`, the normalized growth was 1.06 ± 0.049.
For the compound `CN[C@H](CC(C)C)C(=O)N[C@H]1C(=O)N[C@@H](CC(N)=O)C(=O)N[C@H]2C(=O)N[C@H]3C(=O)N[C@H](C(=O)N[C@H](C(=O)O)c4cc(O)cc(O)c4-c4cc3ccc4O)[C@H](O)c3ccc(c(Cl)c3)Oc3cc2cc(c3O[C@@H]2O[C@H](CO)[C@@H](O)[C@H](O)[C@H]2O[C@H]2C[C@](C)(N)[C@H](O)[C@H](C)O2)Oc2ccc(cc2Cl)[C@H]1O`, the normalized growth is 1.05 ± 0.029.
Turning to `NS(=O)(=O)c1cc2c(cc1Cl)N=CNS2(=O)=O`, the normalized growth amounted to 1.12 ± 0.07.
With `S=C1SCN(Cc2ccccc2)CN1Cc1ccccc1`, the normalized growth stood at 1.11 ± 0.061.
The compound `Cc1cc(C2CCCCC2)n(O)c(=O)c1` had a normalized growth of 0.183 ± 0.014.
The compound `NS(=O)(=O)c1cc(C(=O)O)c(NCc2ccco2)cc1Cl` returned a normalized growth of 1.11 ± 0.052.
Take `O=C(O)c1cc(=O)c2ccccc2o1`: the normalized growth worked out at 0.962 ± 0.041.
With `Cc1c(C(N)=O)cc([N+](=O)[O-])cc1[N+](=O)[O-]`, the normalized growth was 0.996 ± 0.039.
Compound `C=C[C@H]1CN2CC[C@H]1C[C@@H]2[C@@H](O)c1ccnc2ccc(OC)cc12` had a normalized growth of 1.04 ± 0.044.
`N=C(N)N` returned a normalized growth of 0.993 ± 0.033.
`C[C@]12C=CC(=O)C=C1CC[C@@H]1[C@@H]2[C@@H](O)C[C@@]2(C)[C@H]1CC[C@]2(O)C(=O)COP(=O)(O)O` displayed a normalized growth of 1.01 ± 0.02.
On to `C[C@]12CC[C@H]3C(=CCc4cc(O)ccc43)[C@@H]1CCC2=O`, for which the normalized growth amounted to 1.25 ± 0.034.
In turn, `Cc1ncc([N+](=O)[O-])n1CC(O)CCl` (stereo unspecified) yielded a normalized growth of 0.987 ± 0.086.
As for `Cc1cccc(C)c1NC(=O)C1CCCCN1C` (stereo unspecified), the normalized growth came out at 0.9 ± 0.18.
The compound `COc1ccc(C2C(=O)c3ccccc3C2=O)cc1` yielded a normalized growth of 0.974 ± 0.036.
In the case of `CN(C)c1ccc2nc3ccc(=[N+](C)C)cc-3sc2c1`, the normalized growth was 0.837 ± 0.081.
Take `O=C(Nc1ccccc1)c1ccccc1O`: the normalized growth was 1.05 ± 0.042.
As for `Cc1[nH]c(=O)c(C#N)cc1-c1ccncc1`, the figure is 1.07 ± 0.043.
Compound `Cc1ccnc2c1NC(=O)c1cccnc1N2C1CC1` came in with a normalized growth of 1.04 ± 0.045.
To `CN(C)CCC=C1c2ccccc2CCc2ccccc21` belongs 1.03 ± 0.026.
The compound `C#C[C@]1(O)CC[C@H]2[C@@H]3CCc4cc(OC5CCCC5)ccc4[C@H]3CC[C@@]21C` displayed a normalized growth of 0.954 ± 0.1.
Consider `Oc1ccc(Cl)c2c1CCC2`, for which the normalized growth was determined as 1.1 ± 0.084.
